Assay results reported in patent EP3692101B1, “BRILLIANT BLUE (BBG) DYE DERIVATIVES AND STAINING COMPOSITIONS COMPRISING THE SAME FOR SELECTIVELY STAINING BIOLOGICAL SUBSTRATES” (priority 2017, dated 2019).
Some of these results come from one statement about several compounds together.

The chains behind the UniProt entries cited, without tags or fusion partners. Where a name states a change or a piece, a line headed by the entry shows the natural chain unless it says otherwise. Residues count along the entry.
UniProt P02769, 25-607: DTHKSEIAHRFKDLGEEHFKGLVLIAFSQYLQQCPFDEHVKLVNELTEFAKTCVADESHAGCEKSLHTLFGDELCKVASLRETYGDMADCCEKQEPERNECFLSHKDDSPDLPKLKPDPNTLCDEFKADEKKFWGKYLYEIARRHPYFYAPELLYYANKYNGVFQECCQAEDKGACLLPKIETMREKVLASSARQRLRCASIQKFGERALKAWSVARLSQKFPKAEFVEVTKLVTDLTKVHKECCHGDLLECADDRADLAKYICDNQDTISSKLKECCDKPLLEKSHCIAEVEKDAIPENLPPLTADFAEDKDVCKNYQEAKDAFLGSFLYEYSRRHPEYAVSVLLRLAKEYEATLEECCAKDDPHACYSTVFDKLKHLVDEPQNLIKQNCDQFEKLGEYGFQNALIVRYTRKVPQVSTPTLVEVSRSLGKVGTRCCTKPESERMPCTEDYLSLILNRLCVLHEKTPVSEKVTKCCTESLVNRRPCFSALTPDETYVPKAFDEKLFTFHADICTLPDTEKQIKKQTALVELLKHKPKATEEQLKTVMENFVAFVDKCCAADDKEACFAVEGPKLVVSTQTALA
UniProt P00004: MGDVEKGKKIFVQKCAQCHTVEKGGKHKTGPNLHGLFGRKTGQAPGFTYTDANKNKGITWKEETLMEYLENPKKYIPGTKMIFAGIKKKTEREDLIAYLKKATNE

Columns and labels:
[1] = target: bovine serum albumin - 66.5 kDa (Bos taurus, UniProt P02769); experiment: SDS-PAGE protein staining, densitometric analysis of spot intensity; details: dye 0.05% by weight/volume in gel fixative solution, soaked overnight, ImageJ densitometry
[2] = system: proteins and protein chains; experiment: SDS-PAGE protein staining, whole set of molecular weight standards (spots versus background); details: result in words; dye 0.05% by weight/volume; p <0.05
Description: The dye molecules according to the invention were tested in order to show their higher selectivity for proteins and protein chains with respect to BBG. For this purpose, SDS-PAGE electrophoresis tests were performed in order to compare the Benzyl-BBG according to the invention (Example 4) and the Ethyl-BBG according to Example 2 with a commercially available grade of BBG (Sigma-Aldrich 90% purity).
A set of molecular weight standards was created by mixing different amounts of known proteins (E.coli beta-galactosidase - 116.3 kDa, bovine serum albumin - 66.5 kDa, chicken ovalbumin - 42.7 kDa and equine cytochrome C - 12,384 Da) in such a way as to obtain bands of similar intensity. In order to do so, an inverse relationship between amount (as nanograms of protein) and molecular weight of any protein was initially achieved, and small adjustments were experimentally made. Polyacrylamide gel electrophoresis was done in 9% precast gels (Bio-Rad) at 20V for 60-90 minutes in denaturing conditions; standards were loaded in triplicate on separate lanes. […]

[3] = target: T1, chicken ovalbumin - 42.7 kDa (Gallus gallus, UniProt P01012); experiment: SDS-PAGE protein staining, densitometric analysis of spot intensity; details: dye 0.05% by weight/volume in gel fixative solution, soaked overnight, ImageJ densitometry
T1 sequence (P01012 1-386): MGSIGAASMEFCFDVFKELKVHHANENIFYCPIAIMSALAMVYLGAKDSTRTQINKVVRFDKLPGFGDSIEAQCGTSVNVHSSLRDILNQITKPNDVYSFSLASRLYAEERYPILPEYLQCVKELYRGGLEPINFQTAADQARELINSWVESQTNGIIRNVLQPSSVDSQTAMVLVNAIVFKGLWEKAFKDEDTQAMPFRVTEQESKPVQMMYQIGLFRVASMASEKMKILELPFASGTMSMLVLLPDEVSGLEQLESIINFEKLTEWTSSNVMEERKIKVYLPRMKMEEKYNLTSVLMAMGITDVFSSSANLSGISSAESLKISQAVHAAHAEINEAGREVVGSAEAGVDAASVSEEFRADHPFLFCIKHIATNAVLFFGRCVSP

[4] = target: equine cytochrome C - 12,384 Da (Equus caballus, UniProt P00004); experiment: as above; details: dye 0.05% by weight/volume in gel fixative solution, soaked overnight, ImageJ densitometry

| SMILES | increase in the area counts, with respect to BBG [1] [%] | spot intensities of the analyzed proteins with respect to BBG [2] | increase in the area counts, with respect to BBG [3] [%] | increase in the area counts, with respect to BBG [4] [%] |
| --- | --- | --- | --- | --- |
| CCOc1ccc(N(Cc2ccccc2)c2ccc(C(=C3C=CC(=[N+](CC)Cc4cccc(S(=O)(=O)[O-])c4)C=C3C)c3ccc(N(CC)Cc4cccc(S(=O)(=O)O)c4)cc3C)cc2)cc1 [Benzyl-BBG] | 157 | significantly higher | 213 | 168 |
| CCOc1ccc(N(CC)c2ccc(C(=C3C=CC(=[N+](CC)Cc4cccc(S(=O)(=O)[O-])c4)C=C3C)c3ccc(N(CC)Cc4cccc(S(=O)(=O)O)c4)cc3C)cc2)cc1 [Ethyl-BBG] | 157 | significantly higher | 213 | 168 |
